# According to PMC5727073:
# Amino acid sequences for entries named in this document (tags omitted). A change or cut given only in a name is not applied to a line headed by its entry.
# UniProt P61956: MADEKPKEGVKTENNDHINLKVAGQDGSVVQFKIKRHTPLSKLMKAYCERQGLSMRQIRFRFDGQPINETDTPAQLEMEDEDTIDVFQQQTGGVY
# T1: Atac2-V5 (Mus musculus) (UniProt Q8CID0)
# T1 sequence: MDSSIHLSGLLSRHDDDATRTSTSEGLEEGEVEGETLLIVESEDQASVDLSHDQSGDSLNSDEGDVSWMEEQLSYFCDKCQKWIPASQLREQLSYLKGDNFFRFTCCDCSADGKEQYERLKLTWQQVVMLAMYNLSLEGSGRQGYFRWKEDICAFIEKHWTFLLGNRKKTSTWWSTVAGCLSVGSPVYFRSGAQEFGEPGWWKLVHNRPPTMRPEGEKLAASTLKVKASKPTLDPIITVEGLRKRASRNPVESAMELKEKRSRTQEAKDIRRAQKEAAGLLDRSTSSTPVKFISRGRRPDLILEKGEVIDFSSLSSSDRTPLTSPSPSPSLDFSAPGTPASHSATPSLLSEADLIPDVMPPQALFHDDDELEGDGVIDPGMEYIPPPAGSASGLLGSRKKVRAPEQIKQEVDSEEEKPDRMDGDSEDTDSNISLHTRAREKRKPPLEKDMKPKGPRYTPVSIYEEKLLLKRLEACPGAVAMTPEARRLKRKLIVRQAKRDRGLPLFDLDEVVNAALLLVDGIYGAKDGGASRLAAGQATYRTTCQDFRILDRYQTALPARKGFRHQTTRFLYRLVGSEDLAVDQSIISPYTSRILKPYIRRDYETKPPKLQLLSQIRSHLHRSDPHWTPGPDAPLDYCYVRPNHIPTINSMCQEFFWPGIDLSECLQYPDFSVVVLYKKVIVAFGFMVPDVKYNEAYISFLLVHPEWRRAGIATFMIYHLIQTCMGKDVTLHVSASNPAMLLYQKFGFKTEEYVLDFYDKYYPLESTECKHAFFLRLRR
# T2: Atac2 K305A (Mus musculus) (UniProt Q8CID0)
# T2 sequence: T1 sequence with K305A
# T3: Atac2 K749A (Mus musculus) (UniProt Q8CID0)
# T3 sequence: T1 sequence with K749A
# T4: VC-Atac2 (Mus musculus) (UniProt Q8CID0)
# T4 sequence: T1 sequence
# T5: Venus-Atac2 (Mus musculus) (UniProt Q8CID0)
# T5 sequence: T1 sequence
# T6: double-V5-tagged Atac2 (Mus musculus) (UniProt Q8CID0)
# T6 sequence: T1 sequence
# T7: FLAG-K408R Atac2 (Mus musculus) (UniProt Q8CID0)
# T7 sequence: T1 sequence with K408R
# B1: VC-Atac2 (protein, UniProt Q8CID0 1-779)
# chain: T1 sequence
# Columns and labels:
# Atac2-V5 (Mus musculus) = target: T1, Atac2-V5 (Mus musculus); test: co-IP; NIH3T3 lysates (NP-40 lysis buffer with 20 mM N-ethylmaleimide), immunoprecipitation of tagged Atac2 (anti-V5), denatured, SDS-PAGE and Western blot with anti-V5 and anti-Myc; SUMO seen in upshifted bands (covalent conjugate)
# [1] = target: T2, Atac2 K305A (Mus musculus); test: as above
# [2] = target: T3, Atac2 K749A (Mus musculus); test: as above
# VC-Atac2 (Mus musculus) = target: T4, VC-Atac2 (Mus musculus); test: as above
# [3] = target: T5, Venus-Atac2 (Mus musculus); test: as above
# [4] = target: T6, double-V5-tagged Atac2 (Mus musculus); test: as above
# [5] = target: T7, FLAG-K408R Atac2 (Mus musculus); test: in vitro SUMOylation assay (Western blot); 2.5 μg FLAG-Atac2 with 2 mM ATP, 1.0 μg His-SUMO2, 0.75 μg GST-E1 (Aos1/Uba2), 0.05 μg His-E2 (Ubc9), 2 hours at 30 °C, 50 mM Tris-HCl pH 7.6, 6 mM MgCl2, 1 mM DTT; anti-FLAG blot; covalent conjugate; both purified
# VN-SUMO2 (human) = VN-SUMO2 (human) (UniProt P61956); test: split reporter; split Venus (VN 1-158 on SUMO2, VC 159-240 on the partner) in living NIH3T3 cells stably expressing VN-SUMO2, partner co-expressed; confocal fluorescence microscopy; read by the paper as SUMOylation (covalent)
molecule,measurement,setting,value
Venus-Myc-SUMO2 (from UniProt P61956),binding,Atac2-V5 (Mus musculus),binds
Myc-SUMO2 (from UniProt P61956),binding,[1],binds
same,binding,[2],binds
same,binding,Atac2-V5 (Mus musculus),binds
same,binding,VC-Atac2 (Mus musculus),binds
same,binding,[3],binds
same,binding,[4],binds
His-SUMO2 (from UniProt P61956),binding,[5],no binding
B1,binding,VN-SUMO2 (human),binds

# Changes are numbered by the printed parent chain. Results are given in words; binding and its absence hold for the method and conditions named. For part of these data: In cells and extracts the contact can be indirect. For part of these data: A result given as binding can be weak or reduced; the word gives no strength. For part of these data: Where a sequence is shown, tags or fusion partners need not be part of it.
